Some of the results follow.
How the values were obtained:
Assay in all cases: log2 fold change, soluble protein after heating vs DMSO (PISA); higher = thermal stabilisation; K562 cells, 10 uM, 30 min; active = over 0.2 and 3.5 SD of the protein, either way, in both replicates (recomputed)
[1] = compound: CC[C@@H]1C(=O)N(C)c2cnc(Nc3ccc(C(=O)NC4CCN(C)CC4)cc3OC)nc2N1C1CCCC1
Procedure, shortened: (§1)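 K562 cells at 2×10^6 cells/mL were treated with 10 μM compound for 30 min. Aliquots were heated for 3 min across 48°C-58°C, pooled, and extracted in PBS with 0.5% NP-40 at 4°C; soluble protein was the supernatant after 21,000xg for 90 min. Soluble protein was quantified by TMTpro 16plex LC-MS/MS with channel sums equalised, and reported as log2 fold change in thermal stability against DMSO controls, with values from duplicates.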

Protein sequences, listed by entry. Tags and fused reporters are not part of them. Lines headed by an entry give the natural chain unless they say otherwise; changes in a name come on top.
UniProt Q5JPE7: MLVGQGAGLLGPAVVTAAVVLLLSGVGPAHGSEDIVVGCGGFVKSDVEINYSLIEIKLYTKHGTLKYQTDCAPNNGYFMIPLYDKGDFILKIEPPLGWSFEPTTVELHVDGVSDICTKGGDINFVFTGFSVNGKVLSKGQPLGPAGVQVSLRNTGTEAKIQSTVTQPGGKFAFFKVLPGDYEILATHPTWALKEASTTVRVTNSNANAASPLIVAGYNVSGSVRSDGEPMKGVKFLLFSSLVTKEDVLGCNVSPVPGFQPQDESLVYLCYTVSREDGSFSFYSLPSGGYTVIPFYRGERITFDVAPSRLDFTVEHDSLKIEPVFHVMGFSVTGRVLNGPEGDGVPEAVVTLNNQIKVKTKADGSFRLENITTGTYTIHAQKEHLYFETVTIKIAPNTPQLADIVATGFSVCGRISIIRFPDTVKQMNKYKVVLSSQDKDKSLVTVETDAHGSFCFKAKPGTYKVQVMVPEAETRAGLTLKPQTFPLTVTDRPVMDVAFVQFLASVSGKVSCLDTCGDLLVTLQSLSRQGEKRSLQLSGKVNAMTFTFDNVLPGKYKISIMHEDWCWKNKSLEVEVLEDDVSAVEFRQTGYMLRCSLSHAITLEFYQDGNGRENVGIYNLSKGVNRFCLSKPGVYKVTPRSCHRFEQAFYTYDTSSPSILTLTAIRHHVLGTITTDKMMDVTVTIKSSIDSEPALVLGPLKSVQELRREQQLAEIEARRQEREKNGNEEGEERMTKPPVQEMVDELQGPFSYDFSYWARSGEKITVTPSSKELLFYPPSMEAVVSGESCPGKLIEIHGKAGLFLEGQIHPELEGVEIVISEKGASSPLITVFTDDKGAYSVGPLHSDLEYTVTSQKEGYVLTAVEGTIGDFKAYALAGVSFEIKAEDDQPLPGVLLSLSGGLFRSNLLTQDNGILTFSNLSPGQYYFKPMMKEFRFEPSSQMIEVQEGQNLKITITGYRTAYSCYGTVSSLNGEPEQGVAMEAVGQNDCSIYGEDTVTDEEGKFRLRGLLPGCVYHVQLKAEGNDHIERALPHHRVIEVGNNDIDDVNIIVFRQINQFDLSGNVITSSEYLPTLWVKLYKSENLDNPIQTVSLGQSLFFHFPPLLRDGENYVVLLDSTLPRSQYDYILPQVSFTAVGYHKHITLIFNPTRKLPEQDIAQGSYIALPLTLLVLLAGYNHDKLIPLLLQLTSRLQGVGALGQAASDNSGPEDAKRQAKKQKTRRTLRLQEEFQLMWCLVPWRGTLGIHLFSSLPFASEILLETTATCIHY
UniProt P46459: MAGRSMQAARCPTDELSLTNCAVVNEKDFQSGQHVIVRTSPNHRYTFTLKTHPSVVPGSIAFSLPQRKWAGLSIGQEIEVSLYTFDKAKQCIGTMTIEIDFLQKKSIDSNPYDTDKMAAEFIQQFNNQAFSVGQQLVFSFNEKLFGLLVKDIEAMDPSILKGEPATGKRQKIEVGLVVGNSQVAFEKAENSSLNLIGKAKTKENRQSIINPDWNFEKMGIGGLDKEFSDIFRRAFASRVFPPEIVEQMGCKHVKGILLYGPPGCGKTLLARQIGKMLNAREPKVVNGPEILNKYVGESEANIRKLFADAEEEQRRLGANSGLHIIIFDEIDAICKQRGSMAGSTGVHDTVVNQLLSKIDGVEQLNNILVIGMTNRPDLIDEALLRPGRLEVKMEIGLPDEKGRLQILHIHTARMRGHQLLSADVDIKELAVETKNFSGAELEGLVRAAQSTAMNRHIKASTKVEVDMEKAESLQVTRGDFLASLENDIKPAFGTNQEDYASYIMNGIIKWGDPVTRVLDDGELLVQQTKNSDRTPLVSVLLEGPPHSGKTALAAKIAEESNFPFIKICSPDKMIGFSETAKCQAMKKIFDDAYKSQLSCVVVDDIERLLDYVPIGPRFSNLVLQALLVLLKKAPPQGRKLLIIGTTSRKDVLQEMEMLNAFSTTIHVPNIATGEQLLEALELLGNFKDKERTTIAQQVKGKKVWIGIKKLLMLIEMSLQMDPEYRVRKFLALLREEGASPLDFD
UniProt Q9NPE2: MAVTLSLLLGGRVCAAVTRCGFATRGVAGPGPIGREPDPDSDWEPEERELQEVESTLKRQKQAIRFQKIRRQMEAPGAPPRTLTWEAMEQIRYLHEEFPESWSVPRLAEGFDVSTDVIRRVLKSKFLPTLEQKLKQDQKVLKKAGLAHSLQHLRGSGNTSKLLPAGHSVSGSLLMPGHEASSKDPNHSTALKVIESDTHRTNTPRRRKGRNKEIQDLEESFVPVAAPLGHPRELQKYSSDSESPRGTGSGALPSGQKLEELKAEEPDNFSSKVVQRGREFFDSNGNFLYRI
UniProt Q8N8Q9: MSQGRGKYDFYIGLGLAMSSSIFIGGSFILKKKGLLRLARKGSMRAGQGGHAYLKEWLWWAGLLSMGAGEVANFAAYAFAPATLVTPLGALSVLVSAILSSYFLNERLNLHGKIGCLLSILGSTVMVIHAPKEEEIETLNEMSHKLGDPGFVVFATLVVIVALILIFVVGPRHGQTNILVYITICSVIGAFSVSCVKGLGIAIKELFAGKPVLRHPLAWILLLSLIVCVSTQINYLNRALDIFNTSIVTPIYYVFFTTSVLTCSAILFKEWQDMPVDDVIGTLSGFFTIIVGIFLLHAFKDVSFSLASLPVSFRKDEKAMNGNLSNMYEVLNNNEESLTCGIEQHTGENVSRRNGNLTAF
UniProt Q9UNZ2: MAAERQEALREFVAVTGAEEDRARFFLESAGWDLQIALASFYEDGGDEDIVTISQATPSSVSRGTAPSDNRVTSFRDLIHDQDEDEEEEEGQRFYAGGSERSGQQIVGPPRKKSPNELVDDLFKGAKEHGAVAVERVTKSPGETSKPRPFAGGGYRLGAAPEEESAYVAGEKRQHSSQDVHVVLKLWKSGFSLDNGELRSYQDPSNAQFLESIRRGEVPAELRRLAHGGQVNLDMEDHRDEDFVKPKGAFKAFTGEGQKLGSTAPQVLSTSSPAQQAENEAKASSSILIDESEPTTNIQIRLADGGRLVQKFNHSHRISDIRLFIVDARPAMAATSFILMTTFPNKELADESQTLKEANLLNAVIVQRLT
UniProt O60524: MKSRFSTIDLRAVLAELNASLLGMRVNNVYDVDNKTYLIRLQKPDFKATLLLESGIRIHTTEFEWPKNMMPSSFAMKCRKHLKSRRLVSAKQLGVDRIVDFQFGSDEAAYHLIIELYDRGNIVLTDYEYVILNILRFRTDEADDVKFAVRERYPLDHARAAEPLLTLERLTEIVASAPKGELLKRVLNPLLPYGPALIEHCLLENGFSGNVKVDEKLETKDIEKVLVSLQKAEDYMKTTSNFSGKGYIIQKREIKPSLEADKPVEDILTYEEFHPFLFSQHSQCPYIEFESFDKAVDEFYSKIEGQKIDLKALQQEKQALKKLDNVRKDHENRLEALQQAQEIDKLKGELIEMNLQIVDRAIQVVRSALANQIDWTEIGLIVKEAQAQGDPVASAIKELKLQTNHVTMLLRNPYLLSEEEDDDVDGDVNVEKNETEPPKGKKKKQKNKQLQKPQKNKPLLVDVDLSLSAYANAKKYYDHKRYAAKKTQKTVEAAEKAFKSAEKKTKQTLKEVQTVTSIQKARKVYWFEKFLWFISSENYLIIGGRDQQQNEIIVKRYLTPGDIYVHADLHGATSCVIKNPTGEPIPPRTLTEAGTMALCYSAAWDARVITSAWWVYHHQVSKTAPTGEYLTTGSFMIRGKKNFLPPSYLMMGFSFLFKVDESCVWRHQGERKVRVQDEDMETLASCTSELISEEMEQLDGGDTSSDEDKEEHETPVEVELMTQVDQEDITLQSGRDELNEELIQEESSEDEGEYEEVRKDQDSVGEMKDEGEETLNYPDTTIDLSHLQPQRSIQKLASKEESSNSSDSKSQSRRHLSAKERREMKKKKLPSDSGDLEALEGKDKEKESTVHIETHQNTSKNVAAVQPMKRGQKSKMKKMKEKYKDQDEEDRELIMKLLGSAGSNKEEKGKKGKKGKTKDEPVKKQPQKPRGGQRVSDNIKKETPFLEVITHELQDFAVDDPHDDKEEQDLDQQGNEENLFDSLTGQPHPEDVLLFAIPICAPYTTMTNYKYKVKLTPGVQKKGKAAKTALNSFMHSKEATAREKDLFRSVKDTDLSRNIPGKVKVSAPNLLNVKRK
UniProt Q8TD19: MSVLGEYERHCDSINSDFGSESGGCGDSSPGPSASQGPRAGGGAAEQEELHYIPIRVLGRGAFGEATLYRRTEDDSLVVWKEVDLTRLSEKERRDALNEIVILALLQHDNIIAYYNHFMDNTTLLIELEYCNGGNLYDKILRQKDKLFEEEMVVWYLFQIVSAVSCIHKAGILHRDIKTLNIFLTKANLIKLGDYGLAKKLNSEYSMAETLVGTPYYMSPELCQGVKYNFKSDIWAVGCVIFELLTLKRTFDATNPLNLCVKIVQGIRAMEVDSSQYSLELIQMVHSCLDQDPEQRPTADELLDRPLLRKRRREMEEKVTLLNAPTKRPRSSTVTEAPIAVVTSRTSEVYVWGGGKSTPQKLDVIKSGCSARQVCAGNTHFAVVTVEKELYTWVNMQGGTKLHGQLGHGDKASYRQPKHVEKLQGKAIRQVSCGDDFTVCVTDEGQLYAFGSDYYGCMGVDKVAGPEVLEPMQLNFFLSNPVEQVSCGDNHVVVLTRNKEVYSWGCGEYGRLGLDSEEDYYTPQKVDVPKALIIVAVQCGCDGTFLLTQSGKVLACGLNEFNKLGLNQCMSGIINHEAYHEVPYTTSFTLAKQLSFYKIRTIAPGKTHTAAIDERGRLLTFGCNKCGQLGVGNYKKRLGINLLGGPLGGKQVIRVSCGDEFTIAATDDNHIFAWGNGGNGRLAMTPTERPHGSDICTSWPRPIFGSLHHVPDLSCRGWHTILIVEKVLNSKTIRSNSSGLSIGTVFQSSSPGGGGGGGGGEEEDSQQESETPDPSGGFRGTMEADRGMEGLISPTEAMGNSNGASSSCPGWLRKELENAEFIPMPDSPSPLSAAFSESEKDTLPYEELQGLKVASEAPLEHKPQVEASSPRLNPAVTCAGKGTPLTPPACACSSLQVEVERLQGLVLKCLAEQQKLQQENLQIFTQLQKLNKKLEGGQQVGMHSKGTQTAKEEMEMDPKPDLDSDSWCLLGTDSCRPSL
UniProt Q9UMX5: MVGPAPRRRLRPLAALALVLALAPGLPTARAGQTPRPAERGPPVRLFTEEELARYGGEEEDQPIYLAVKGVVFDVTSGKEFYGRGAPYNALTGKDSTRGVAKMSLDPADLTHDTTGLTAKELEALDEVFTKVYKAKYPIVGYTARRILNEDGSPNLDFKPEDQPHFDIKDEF
UniProt Q9NVX2: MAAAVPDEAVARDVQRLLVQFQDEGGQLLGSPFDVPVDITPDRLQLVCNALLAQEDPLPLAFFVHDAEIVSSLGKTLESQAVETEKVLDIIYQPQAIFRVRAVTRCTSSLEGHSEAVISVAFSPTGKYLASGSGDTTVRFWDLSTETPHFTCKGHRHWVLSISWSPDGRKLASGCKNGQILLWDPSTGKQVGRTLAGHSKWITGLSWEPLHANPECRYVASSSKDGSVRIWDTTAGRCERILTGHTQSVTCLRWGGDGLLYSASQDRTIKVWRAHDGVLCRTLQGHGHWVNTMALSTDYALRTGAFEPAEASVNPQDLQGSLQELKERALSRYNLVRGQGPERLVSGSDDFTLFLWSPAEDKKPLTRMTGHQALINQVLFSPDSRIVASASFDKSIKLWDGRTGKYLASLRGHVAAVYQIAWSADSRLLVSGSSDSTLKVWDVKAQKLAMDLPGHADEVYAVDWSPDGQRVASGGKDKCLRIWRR
UniProt Q8TAT6: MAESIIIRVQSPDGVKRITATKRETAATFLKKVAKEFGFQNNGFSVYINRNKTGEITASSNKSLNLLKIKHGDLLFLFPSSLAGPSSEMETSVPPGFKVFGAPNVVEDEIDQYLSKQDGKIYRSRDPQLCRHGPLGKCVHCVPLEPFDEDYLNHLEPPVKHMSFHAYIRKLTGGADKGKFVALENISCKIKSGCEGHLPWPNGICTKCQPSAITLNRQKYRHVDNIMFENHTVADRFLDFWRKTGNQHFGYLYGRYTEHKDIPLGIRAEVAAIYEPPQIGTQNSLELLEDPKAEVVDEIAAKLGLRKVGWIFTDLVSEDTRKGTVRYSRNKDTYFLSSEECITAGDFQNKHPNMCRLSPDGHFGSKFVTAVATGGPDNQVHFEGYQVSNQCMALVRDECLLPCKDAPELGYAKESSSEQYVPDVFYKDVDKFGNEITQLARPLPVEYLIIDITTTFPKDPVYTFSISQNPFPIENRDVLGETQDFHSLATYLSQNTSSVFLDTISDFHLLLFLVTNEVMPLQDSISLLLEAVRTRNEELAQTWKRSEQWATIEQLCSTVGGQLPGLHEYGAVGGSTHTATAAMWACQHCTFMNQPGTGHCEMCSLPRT

volasertib = compound: CC[C@@H]1C(=O)N(C)c2cnc(Nc3ccc(C(=O)N[C@H]4CC[C@H](N5CCN(CC6CC6)CC5)CC4)cc3OC)nc2N1C(C)C [volasertib]
Procedure, shortened: as §1

[2] = compound: CC[C@H](C)N1C=C(C2=C(C=C(C=C21)C3=CN=C(C=C3)N4CCNCC4)C(=O)NCC5=C(C=C(NC5=O)C)C)C
Procedure, shortened: as §1

epoxomicin = compound: CC[C@H](C)[C@@H](C(=O)N[C@@H]([C@@H](C)O)C(=O)N[C@@H](CC(C)C)C(=O)[C@]1(CO1)C)NC(=O)[C@H]([C@@H](C)CC)N(C)C(=O)C [epoxomicin]
Procedure, shortened: as §1

[3] = compound: CCn1c(C(=O)N(C2CC2)C2CC2)cc2c3c(ncn3C)c(Nc3cc(C)n(C)n3)nc21
Procedure, shortened: as §1

[4] = compound: CCn1cc(-c2ccnc3[nH]c(-c4cccc(CN(C)C)c4)cc23)c(-c2ccc(NC(=O)N(C)C)cc2)n1
Procedure, shortened: as §1

[5] = compound: CN(C)CC(=O)Nc1ccc2[nH]c(=O)c3ccccc3c2c1
Procedure, shortened: as §1

rosiglitazone = compound: CN(CCOC1=CC=C(C=C1)C[C@H]2C(=O)NC(=O)S2)C3=CC=CC=N3 (racemic) [rosiglitazone]
Procedure, shortened: as §1

[6] = compound: CN1C2=C(C3=C1C(=O)N(N=C3)CC4=CC(=CC=C4)N)SC(=C2)S(=O)C
Procedure, shortened: as §1

[7] = compound: CN1CCC(CNc2ccc3ncc(-c4cccc(OC(F)(F)F)c4)n3n2)CC1
Procedure, shortened: as §1

saracatinib = compound: CN1CCN(CCOc2cc(OC3CCOCC3)c3c(Nc4c(Cl)ccc5c4OCO5)ncnc3c2)CC1 [saracatinib]
Procedure, shortened: as §1

sotrastaurin = compound: CN1CCN(c2nc(C3=C(c4c[nH]c5ccccc45)C(=O)NC3=O)c3ccccc3n2)CC1 [sotrastaurin]
Procedure, shortened: as §1

alvocidib = compound: CN1CC[C@H](c2c(O)cc(O)c3c(=O)cc(-c4ccccc4Cl)oc23)[C@H](O)C1 [alvocidib]
Procedure, shortened: as §1

Tubastatin A = compound: CN1CCc2c(c3ccccc3n2Cc2ccc(C(=O)NO)cc2)C1 [Tubastatin A]
Procedure, shortened: as §1

[8] = compound: CNC(=O)C1=CC=CC=C1NC2=NC(=NC=C2Cl)NC3=C(C=C(C=C3)N4CCOCC4)OC
Procedure, shortened: as §1

defactinib = compound: CNC(=O)c1ccc(Nc2ncc(C(F)(F)F)c(NCc3nccnc3N(C)S(C)(=O)=O)n2)cc1 [defactinib]
Procedure, shortened: as §1

rucaparib = compound: CNCc1ccc(-c2[nH]c3cc(F)cc4c3c2CCNC4=O)cc1 [rucaparib]
Procedure, shortened: as §1

[9] = compound: CNc1nc(-c2ccc3c(N)n[nH]c3c2)cc(N2C[C@@H](C(=O)NC3CCCCC3)CC[C@H]2C)n1
Procedure, shortened: as §1

encorafenib = compound: COC(=O)N[C@@H](C)CNc1nccc(-c2cn(C(C)C)nc2-c2cc(Cl)cc(NS(C)(=O)=O)c2F)n1 [encorafenib]
Procedure, shortened: as §1

[10] = compound: COC(=O)[C@H](CCSC)NC(=O)C1=C(C=C(C=C1)NC[C@H](CS)N)C2=CC=CC=C2
Procedure, shortened: as §1

Measured: log2 fold change

NFAT5 isoform 5 (UniProt O94916)
inactive: [1] 0.027 | volasertib 0.153 | [2] 0 | epoxomicin 0.018 | [3] -0.006 | [4] -0.057 | [5] 0.068 | rosiglitazone 0.201 | [6] 0.122 | [7] 0.087 | saracatinib -0.072 | sotrastaurin -0.005 | alvocidib -0.004 | Tubastatin A 0.071 | [8] 0.098 | defactinib -0.044 | rucaparib -0.011 | [9] 0.001 | encorafenib 0.05 | [10] 0.03

NOMO2 (UniProt Q5JPE7)
inactive: [1] 0.002 | volasertib -0.073 | [2] 0.011 | epoxomicin -0.009 | [3] 0 | [4] 0.011 | [5] 0.004 | rosiglitazone 0.001 | [6] -0.003 | [7] 0.057 | saracatinib -0.003 | sotrastaurin -0.01 | alvocidib -0.004 | Tubastatin A 0.019 | [8] 0.014 | defactinib -0.009 | rucaparib 0.027 | [9] 0.011 | encorafenib 0.045 | [10] -0.035

NSF (UniProt P46459)
inactive: [1] -0.058 | volasertib -0.067 | [2] 0.038 | epoxomicin 0.02 | [3] -0.028 | [4] -0.054 | [5] 0.021 | rosiglitazone 0.044 | [6] -0.006 | [7] -0.033 | saracatinib -0.055 | sotrastaurin -0.031 | alvocidib -0.058 | Tubastatin A 0.011 | [8] -0.008 | defactinib -0.038 | rucaparib 0.014 | [9] 0.042 | encorafenib 0.031 | [10] -0.032

NGRN (UniProt Q9NPE2)
inactive: [1] 0.109 | volasertib 0.016 | [2] 0.027 | epoxomicin -0.075 | [3] 0.018 | [4] -0.044 | [5] -0.09 | rosiglitazone 0.009 | [6] 0.066 | [7] -0.009 | saracatinib -0.027 | sotrastaurin 0.041 | alvocidib 0.136 | Tubastatin A 0.029 | [8] 0.077 | defactinib -0.031 | rucaparib 0.114 | [9] 0.092 | encorafenib -0.035 | [10] 0.028

2 consecutive entries already listed:
NFAT5 isoform 5 (UniProt O94916)
inactive: [1] 0.027 | volasertib 0.153 | [2] 0 | epoxomicin 0.018 | [3] -0.006 | [4] -0.057 | [5] 0.068 | rosiglitazone 0.201 | [6] 0.122 | [7] 0.087 | saracatinib -0.072 | sotrastaurin -0.005 | alvocidib -0.004 | Tubastatin A 0.071 | [8] 0.098 | defactinib -0.044 | rucaparib -0.011 | [9] 0.001 | encorafenib 0.05 | [10] 0.03

NOMO2 (UniProt Q5JPE7)
inactive: [1] 0.002 | volasertib -0.073 | [2] 0.011 | epoxomicin -0.009 | [3] 0 | [4] 0.011 | [5] 0.004 | rosiglitazone 0.001 | [6] -0.003 | [7] 0.057 | saracatinib -0.003 | sotrastaurin -0.01 | alvocidib -0.004 | Tubastatin A 0.019 | [8] 0.014 | defactinib -0.009 | rucaparib 0.027 | [9] 0.011 | encorafenib 0.045 | [10] -0.035

The list goes on:

NIPA2 (UniProt Q8N8Q9)
inactive: [1] 0 | volasertib -0.051 | [2] 0.033 | epoxomicin 0.063 | [3] -0.008 | [4] -0.029 | [5] 0.177 | rosiglitazone -0.095 | [6] -0.073 | [7] -0.019 | saracatinib 0.123 | sotrastaurin 0.067 | alvocidib -0.052 | Tubastatin A 0.007 | [8] -0.046 | defactinib -0.063 | rucaparib -0.065 | [9] 0.053 | encorafenib 0.074 | [10] 0.096

NSFL1C isoform 5 (UniProt Q9UNZ2)
inactive: [1] 0.006 | volasertib -0.001 | [2] 0.01 | epoxomicin 0.037 | [3] -0.002 | [4] -0.016 | [5] 0.002 | rosiglitazone 0.044 | [6] -0.034 | [7] 0.007 | saracatinib 0.002 | sotrastaurin -0.066 | alvocidib -0.045 | Tubastatin A 0.006 | [8] 0.025 | defactinib -0.045 | rucaparib -0.07 | [9] -0.018 | encorafenib -0.012 | [10] -0.023

NEMF (UniProt O60524)
inactive: [1] 0.228 | volasertib 0.261 | [2] 0.05 | epoxomicin -0.338 | [3] -0.073 | [4] 0.129 | [5] -0.084 | rosiglitazone -0.089 | [6] 0.344 | [7] 0.15 | saracatinib -0.181 | sotrastaurin -0.032 | alvocidib 0.222 | Tubastatin A 0.164 | [8] -0.019 | defactinib 0.302 | rucaparib 0.316 | [9] 0.151 | encorafenib 0.132 | [10] -0.022

NEK9 (UniProt Q8TD19)
inactive: [1] -0.05 | volasertib -0.066 | [2] 0.047 | epoxomicin 0.008 | [3] 0.015 | [4] -0.032 | [5] 0.001 | rosiglitazone 0.073 | [6] -0.007 | [7] -0.092 | saracatinib -0.013 | sotrastaurin 0.01 | alvocidib -0.024 | Tubastatin A 0.03 | [8] -0.016 | defactinib -0.049 | rucaparib -0.015 | [9] 0.025 | encorafenib 0.008 | [10] 0.023

NSMAF (UniProt Q92636)
inactive: [1] -0.052 | volasertib -0.128 | [2] 0.011 | epoxomicin 0.056 | [3] 0.02 | [4] -0.068 | [5] 0.01 | rosiglitazone -0.001 | [6] -0.078 | [7] -0.052 | saracatinib -0.03 | sotrastaurin 0.013 | alvocidib -0.063 | Tubastatin A -0.03 | [8] -0.008 | defactinib -0.031 | rucaparib 0.178 | [9] -0.044 | encorafenib 0.01 | [10] -0.018

NOA1 (UniProt Q8NC60)
inactive: [1] 0 | volasertib -0.003 | [2] 0.022 | epoxomicin -0.062 | [3] -0.083 | [4] 0.006 | [5] 0.03 | rosiglitazone 0.073 | [6] 0.003 | [7] -0.075 | saracatinib -0.139 | sotrastaurin 0.042 | alvocidib 0.055 | Tubastatin A 0.045 | [8] -0.042 | defactinib -0.047 | rucaparib -0.047 | [9] -0.031 | encorafenib 0.028 | [10] -0.043

NENF (UniProt Q9UMX5)
inactive: [1] 0.022 | volasertib 0.028 | [2] -0.026 | epoxomicin -0.04 | [3] 0.016 | [4] 0.04 | [5] -0.019 | rosiglitazone -0.005 | [6] -0.066 | [7] 0.056 | saracatinib -0.013 | sotrastaurin 0.001 | alvocidib 0.007 | Tubastatin A -0.004 | [8] -0.02 | defactinib 0.042 | rucaparib 0.009 | [9] -0.02 | encorafenib -0.023 | [10] 0.022

NLE1 (UniProt Q9NVX2)
inactive: [1] -0.018 | volasertib -0.056 | [2] -0.029 | epoxomicin 0.016 | [3] 0.018 | [4] -0.027 | [5] 0.014 | rosiglitazone 0.028 | [6] -0.096 | [7] 0.04 | saracatinib 0.051 | sotrastaurin -0.019 | alvocidib -0.03 | Tubastatin A -0.026 | [8] -0.032 | defactinib -0.039 | rucaparib -0.04 | [9] -0.012 | encorafenib -0.002 | [10] -0.021

NRAS (UniProt P01111)
inactive: [1] 0.055 | volasertib 0.071 | [2] -0.002 | epoxomicin -0.035 | [3] 0.026 | [4] 0 | [5] -0.014 | rosiglitazone 0.001 | [6] -0.1 | [7] 0.091 | saracatinib 0 | sotrastaurin 0.107 | alvocidib -0.01 | Tubastatin A -0.023 | [8] -0.008 | defactinib -0.002 | rucaparib -0.008 | [9] 0.044 | encorafenib -0.041 | [10] 0.023

NMI (UniProt Q13287)
inactive: [1] 0.029 | volasertib 0.012 | [2] -0.027 | epoxomicin 0.048 | [3] 0.004 | [4] -0.013 | [5] -0.022 | rosiglitazone 0.032 | [6] -0.045 | [7] -0.082 | saracatinib -0.013 | sotrastaurin 0.014 | alvocidib 0.002 | Tubastatin A -0.035 | [8] -0.038 | defactinib 0.007 | rucaparib 0 | [9] -0.029 | encorafenib -0.005 | [10] 0.011

NPLOC4 isoform 2 (UniProt Q8TAT6)
inactive: [1] 0.037 | volasertib 0.003 | [2] 0.023 | epoxomicin 0.013 | [3] -0.04 | [4] -0.027 | [5] -0.013 | rosiglitazone 0.014 | [6] -0.071 | [7] -0.028 | saracatinib 0.041 | sotrastaurin 0.024 | alvocidib 0 | Tubastatin A -0.01 | [8] -0.043 | defactinib 0.008 | rucaparib -0.013 | [9] 0.008 | encorafenib -0.004 | [10] 0.046

NIT1 (UniProt Q86X76)
inactive: [1] 0.005 | volasertib 0.043 | [2] -0.037 | epoxomicin -0.031 | [3] -0.025 | [4] -0.045 | [5] 0.017 | rosiglitazone 0.01 | [6] 0.02 | [7] 0.02 | saracatinib 0.044 | sotrastaurin -0.001 | alvocidib -0.017 | Tubastatin A 0.024 | [8] -0.056 | defactinib -0.023 | rucaparib 0.029 | [9] -0.052 | encorafenib -0.032 | [10] 0.034

From the supplement of paper PMC10849652
